Values quoted from earlier work as cited in patent US11534377B2, “Hair growth agent” (KOBAYASHI PHARMACEUTICAL CO., LTD., priority 2016, dated 2022).
At least one compound was matched to its structure with a doubt left.

System: obese mice
Settings: insulin sensitivity increasing substances, PTL 2; cited from earlier work

Cc1c(C)c2c(c(C)c1O)CCC(C)(COc1ccc(CC3SC(=O)NC3=O)cc1)O2 (stereo not shown) [troglitazone]
Effect on hair loss: prevented hair loss or slowed progress of hair loss
